In the supplement of paper PMC10849652:
Some of the results follow.

The chains behind the UniProt entries cited, without tags or fusion partners. Where a name states a change or a piece, a line headed by the entry shows the natural chain unless it says otherwise.
UniProt Q7Z7L8: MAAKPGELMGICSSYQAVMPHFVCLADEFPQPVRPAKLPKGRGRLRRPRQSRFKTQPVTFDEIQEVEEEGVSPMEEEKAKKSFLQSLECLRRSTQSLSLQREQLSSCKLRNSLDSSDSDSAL
UniProt Q96HA4: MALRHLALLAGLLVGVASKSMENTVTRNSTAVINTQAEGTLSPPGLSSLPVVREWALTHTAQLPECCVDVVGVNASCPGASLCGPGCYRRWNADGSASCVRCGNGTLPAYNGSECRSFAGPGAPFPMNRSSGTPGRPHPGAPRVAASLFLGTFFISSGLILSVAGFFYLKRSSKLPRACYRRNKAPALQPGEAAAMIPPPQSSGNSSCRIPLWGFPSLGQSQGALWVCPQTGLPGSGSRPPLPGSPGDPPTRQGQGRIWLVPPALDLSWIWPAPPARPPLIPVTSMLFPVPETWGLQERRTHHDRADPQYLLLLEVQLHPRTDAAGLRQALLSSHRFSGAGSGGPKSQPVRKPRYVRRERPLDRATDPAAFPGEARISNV
UniProt Q8N5S9: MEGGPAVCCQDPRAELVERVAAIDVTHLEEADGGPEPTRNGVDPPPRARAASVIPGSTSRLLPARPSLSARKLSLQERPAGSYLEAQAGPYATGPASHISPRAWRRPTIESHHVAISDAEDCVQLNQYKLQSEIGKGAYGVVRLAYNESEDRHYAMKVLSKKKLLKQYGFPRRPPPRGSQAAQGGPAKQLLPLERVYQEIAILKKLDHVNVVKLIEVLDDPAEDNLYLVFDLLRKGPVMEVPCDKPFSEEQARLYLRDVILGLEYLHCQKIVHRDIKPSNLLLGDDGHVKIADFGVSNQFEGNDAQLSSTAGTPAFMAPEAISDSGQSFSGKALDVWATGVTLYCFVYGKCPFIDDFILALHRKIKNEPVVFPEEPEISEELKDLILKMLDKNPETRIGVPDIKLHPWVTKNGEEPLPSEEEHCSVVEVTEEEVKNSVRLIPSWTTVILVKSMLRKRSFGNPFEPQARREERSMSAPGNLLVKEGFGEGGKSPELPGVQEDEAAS
UniProt Q9HB07: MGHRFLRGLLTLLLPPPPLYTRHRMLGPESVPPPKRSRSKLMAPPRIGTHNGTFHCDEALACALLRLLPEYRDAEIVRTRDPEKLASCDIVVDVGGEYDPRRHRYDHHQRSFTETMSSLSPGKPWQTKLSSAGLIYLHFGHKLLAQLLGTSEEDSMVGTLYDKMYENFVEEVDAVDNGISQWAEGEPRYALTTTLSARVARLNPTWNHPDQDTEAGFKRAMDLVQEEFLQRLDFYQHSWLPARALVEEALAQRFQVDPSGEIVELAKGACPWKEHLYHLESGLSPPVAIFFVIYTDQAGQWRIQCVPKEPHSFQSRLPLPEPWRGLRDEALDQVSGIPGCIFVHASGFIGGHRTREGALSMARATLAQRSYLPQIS
UniProt Q8N1Q1: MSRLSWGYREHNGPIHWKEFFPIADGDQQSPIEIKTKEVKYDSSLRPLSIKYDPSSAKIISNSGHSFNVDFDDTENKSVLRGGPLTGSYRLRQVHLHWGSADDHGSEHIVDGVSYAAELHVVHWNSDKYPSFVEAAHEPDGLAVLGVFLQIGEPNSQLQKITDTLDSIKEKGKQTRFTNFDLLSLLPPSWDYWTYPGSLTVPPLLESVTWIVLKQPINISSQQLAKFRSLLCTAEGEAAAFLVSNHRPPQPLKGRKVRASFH
UniProt Q0VDD7: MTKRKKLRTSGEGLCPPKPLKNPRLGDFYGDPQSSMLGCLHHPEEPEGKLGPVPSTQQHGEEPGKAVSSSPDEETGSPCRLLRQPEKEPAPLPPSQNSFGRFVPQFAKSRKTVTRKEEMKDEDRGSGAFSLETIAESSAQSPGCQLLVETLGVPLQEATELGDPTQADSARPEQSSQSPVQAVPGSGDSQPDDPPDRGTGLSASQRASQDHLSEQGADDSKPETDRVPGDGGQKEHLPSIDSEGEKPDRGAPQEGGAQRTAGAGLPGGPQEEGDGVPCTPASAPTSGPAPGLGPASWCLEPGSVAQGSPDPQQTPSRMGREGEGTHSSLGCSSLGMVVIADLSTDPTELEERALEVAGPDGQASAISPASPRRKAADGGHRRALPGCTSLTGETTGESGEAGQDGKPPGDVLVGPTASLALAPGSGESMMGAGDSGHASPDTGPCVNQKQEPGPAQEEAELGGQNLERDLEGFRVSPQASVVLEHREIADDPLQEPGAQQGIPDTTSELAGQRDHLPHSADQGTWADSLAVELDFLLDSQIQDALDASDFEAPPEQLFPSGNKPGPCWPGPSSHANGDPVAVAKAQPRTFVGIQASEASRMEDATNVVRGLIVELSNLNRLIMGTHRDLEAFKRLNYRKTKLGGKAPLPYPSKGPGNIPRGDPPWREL
UniProt Q06187: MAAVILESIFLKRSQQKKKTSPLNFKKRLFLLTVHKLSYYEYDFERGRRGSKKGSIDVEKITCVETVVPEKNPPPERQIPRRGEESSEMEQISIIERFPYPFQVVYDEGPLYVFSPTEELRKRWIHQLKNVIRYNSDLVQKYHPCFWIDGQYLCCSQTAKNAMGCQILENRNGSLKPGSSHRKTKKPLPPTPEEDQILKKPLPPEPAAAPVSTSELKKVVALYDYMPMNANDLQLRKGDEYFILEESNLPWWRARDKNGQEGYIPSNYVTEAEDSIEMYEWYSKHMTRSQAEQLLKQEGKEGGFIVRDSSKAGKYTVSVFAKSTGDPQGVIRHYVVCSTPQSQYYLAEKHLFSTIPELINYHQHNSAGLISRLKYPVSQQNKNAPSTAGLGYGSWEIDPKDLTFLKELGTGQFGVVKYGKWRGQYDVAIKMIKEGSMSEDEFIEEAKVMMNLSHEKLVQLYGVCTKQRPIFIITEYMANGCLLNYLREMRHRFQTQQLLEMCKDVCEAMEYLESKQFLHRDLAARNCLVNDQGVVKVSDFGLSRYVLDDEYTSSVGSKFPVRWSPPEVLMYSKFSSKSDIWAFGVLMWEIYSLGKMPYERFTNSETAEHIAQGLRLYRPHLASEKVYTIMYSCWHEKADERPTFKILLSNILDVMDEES
UniProt Q9GZU0: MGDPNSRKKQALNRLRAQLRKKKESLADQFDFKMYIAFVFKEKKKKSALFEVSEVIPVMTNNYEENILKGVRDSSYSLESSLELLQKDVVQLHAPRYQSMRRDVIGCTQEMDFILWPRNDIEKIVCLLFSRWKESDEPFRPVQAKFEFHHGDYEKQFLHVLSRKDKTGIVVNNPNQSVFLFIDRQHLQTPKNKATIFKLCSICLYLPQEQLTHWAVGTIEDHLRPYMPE
UniProt Q6UX52: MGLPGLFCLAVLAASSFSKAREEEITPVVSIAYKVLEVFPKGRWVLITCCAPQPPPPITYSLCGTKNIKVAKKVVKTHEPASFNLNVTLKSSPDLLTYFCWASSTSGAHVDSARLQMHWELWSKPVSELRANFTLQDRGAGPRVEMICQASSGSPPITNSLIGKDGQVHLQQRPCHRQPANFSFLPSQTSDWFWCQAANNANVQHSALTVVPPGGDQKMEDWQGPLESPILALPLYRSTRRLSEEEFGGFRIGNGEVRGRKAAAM
UniProt Q9BUW7: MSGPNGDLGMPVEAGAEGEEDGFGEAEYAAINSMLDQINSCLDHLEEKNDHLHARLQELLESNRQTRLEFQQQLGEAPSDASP
UniProt Q9H741: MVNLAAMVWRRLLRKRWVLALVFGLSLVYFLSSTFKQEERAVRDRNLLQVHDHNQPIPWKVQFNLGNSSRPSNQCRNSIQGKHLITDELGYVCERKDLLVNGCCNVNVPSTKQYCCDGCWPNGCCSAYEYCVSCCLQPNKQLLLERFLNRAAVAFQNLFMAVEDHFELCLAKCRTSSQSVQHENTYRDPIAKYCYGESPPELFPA
UniProt Q9BSF8: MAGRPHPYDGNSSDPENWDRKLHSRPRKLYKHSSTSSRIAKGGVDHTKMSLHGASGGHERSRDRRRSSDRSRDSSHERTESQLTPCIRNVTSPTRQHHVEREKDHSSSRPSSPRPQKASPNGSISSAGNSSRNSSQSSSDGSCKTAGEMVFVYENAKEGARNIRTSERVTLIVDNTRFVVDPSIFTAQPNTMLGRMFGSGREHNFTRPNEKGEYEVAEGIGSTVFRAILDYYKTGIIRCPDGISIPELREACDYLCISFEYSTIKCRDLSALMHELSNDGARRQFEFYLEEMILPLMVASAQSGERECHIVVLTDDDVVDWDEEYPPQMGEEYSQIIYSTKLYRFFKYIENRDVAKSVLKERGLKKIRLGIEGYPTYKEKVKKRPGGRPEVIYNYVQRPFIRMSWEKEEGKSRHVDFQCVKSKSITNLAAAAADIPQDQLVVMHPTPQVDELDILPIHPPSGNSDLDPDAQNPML
UniProt Q9BRJ6: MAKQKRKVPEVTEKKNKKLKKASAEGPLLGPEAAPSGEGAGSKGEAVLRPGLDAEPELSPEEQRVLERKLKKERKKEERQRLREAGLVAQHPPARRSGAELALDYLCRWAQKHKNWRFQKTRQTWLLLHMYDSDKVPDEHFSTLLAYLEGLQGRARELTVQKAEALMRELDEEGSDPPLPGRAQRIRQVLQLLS
UniProt Q96N11, whole entry, looked up: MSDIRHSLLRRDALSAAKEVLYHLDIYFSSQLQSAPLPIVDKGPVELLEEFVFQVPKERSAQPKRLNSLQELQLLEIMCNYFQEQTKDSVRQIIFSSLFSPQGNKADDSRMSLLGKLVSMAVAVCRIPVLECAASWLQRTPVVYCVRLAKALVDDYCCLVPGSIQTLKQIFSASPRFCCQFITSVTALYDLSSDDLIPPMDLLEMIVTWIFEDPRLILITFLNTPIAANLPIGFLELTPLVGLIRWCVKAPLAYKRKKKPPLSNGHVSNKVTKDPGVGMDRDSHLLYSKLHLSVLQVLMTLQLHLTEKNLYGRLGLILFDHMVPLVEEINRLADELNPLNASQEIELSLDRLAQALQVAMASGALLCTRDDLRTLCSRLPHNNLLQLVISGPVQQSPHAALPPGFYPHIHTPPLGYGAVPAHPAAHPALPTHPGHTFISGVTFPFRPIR
UniProt Q01518, whole entry, looked up: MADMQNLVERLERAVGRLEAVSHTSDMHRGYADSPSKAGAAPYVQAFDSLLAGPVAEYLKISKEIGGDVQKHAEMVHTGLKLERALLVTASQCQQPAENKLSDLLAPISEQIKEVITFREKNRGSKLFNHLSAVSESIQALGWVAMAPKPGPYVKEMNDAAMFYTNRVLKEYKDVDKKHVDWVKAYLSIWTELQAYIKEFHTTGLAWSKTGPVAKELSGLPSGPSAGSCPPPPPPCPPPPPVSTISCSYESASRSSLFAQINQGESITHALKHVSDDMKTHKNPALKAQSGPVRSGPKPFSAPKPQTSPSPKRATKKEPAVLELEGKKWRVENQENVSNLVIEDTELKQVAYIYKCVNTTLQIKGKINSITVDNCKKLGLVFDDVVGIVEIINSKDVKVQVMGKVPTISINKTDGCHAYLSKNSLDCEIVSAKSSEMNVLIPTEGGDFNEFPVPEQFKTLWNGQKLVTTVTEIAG
UniProt Q96F05: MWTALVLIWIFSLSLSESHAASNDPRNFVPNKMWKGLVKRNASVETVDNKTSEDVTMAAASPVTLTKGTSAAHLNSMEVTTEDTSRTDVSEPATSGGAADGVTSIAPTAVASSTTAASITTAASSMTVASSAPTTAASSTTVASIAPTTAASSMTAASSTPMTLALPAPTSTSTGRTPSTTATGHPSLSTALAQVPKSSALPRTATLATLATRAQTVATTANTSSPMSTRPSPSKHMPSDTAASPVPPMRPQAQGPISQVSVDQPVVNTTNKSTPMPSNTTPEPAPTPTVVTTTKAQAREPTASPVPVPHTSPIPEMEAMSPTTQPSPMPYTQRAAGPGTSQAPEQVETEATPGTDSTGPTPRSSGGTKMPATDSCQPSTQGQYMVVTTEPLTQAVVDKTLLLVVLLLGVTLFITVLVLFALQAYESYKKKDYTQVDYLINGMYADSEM
UniProt Q5U649: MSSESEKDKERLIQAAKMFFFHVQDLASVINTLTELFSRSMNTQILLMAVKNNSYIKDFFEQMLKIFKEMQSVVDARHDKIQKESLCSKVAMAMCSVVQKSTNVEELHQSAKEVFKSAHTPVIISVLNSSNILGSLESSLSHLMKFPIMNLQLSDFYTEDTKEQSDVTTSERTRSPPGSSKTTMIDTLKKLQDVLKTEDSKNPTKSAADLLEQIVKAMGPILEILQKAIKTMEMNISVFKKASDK
UniProt Q16581: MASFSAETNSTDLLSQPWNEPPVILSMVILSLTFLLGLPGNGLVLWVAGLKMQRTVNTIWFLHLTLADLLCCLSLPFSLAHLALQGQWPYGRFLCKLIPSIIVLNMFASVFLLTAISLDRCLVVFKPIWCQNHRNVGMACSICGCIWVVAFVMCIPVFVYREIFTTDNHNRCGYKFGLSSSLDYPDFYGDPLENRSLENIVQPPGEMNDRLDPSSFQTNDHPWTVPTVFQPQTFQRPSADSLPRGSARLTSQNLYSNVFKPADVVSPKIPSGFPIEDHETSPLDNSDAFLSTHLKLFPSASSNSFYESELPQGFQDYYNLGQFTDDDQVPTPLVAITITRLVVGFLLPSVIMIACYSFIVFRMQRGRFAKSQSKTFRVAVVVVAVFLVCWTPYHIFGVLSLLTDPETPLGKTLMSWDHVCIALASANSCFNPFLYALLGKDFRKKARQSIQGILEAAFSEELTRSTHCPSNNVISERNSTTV

compound: CCn1cc(-c2ccnc3[nH]c(-c4cccc(CN(C)C)c4)cc23)c(-c2ccc(NC(=O)N(C)C)cc2)n1; assay: log2 fold change, soluble protein after heating vs DMSO (PISA); higher = thermal stabilisation; K562 cells, 10 uM, 30 min; active = over 0.2 and 3.5 SD of the protein, either way, in both replicates (recomputed)
In short: (§1)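 Thermal stability values are relative to control samples and come from duplicates. They are expressed as log2 fold changes. For measurement, K562 cells (2×10^6 cells/mL) received 10 μM compound for 30 min, and aliquots were heated for 3 min over 48°C-58°C, pooled, and extracted at 4°C in PBS with 0.5% NP-40. Soluble protein, the supernatant after 21,000xg for 90 min, was quantified by TMTpro 16plex LC-MS/MS with equalised channel sums.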

log2 fold change, inactive:
C11orf96 (UniProt Q7Z7L8) 0.065
C1orf159 isoform 4 (UniProt Q96HA4) -0.219
CAMKK1 isoform 2 (UniProt Q8N5S9) -0.381
C5 (UniProt P01031) -0.124
C12orf10 (UniProt Q9HB07) -0.082
CA13 (UniProt Q8N1Q1) 0.078
CALD1 (UniProt Q05682) -0.325
C19orf57 (UniProt Q0VDD7) 0.192
BTK isoform 2 (UniProt Q06187) 0.146
C6orf62 (UniProt Q9GZU0) 0.011
C17orf99 (UniProt Q6UX52) -0.192
C9orf16 (UniProt Q9BUW7) 0.128
C12orf49 (UniProt Q9H741) 0.323
BTBD10 isoform 2 (UniProt Q9BSF8) 0.148

compound: CN(C)CC(=O)Nc1ccc2[nH]c(=O)c3ccccc3c2c1; assay: as above
In short: as §1

log2 fold change, inactive:
BSN (UniProt Q9UPA5) -0.131
C11orf96 (UniProt Q7Z7L8) -0.366
C1orf159 isoform 4 (UniProt Q96HA4) -0.061
C5 (UniProt P01031) -0.08
CA13 (UniProt Q8N1Q1) -0.058
C7orf50 (UniProt Q9BRJ6) -0.025
C19orf57 (UniProt Q0VDD7) -0.081
BTK isoform 2 (UniProt Q06187) -0.104
CA1 (UniProt E5RIF9) -0.037
C7orf26 (UniProt Q96N11) -0.019

compound: CN(CCOC1=CC=C(C=C1)C[C@H]2C(=O)NC(=O)S2)C3=CC=CC=N3 (racemic) [rosiglitazone]; assay: as above
In short: as §1

log2 fold change, inactive:
C1orf159 isoform 4 (UniProt Q96HA4) -0.009
CA13 (UniProt Q8N1Q1) 0.062
CAP1 isoform 2 (UniProt Q01518) -0.381
C11orf24 (UniProt Q96F05) 0.129
C19orf57 (UniProt Q0VDD7) -0.07
C12orf60 (UniProt Q5U649) -0.294
C3AR1 (UniProt Q16581) -0.138
C7orf26 (UniProt Q96N11) -0.147
